Measured values reported in the supplement of paper PMC7125110.
± gives the standard error. Many of these values have a large error.

B1: glmS ribozyme (parent)
chain: AUAAAAGCGCCAGAACUACAGAAAUGUAGUUGACGAGGAGGAGGUUUAUCGAAUUUUCGGCGGAUGCCUCCAAA

Variants of: B1
Assay: self-cleavage kobs at 2500 uM GlcN6P; higher = faster cleavage; RNA array
Conditions: with glucosamine-6-phosphate
Outline: (§1)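 Tiles bearing barcoded ribozyme variants, transcribed in situ by E. coli RNA polymerase on sequenced MiSeq chips, were imaged over ~14 h at 37 °C using a hybridised Cy3 probe. Glucosamine-6-phosphate was supplied at 40 μM to 10 mM in HEPES/KCl/Mg(OAc)2 buffer. kobs came from one- or two-exponential decay fits to normalised per-tile medians, and weighted Michaelis–Menten fits then provided kcat and KM.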

| Variant | self-cleavage kobs at 2500 uM GlcN6P |
| --- | --- |
| AUAAAAGCGCCUGAACUACAGAAAUGUAGUUGACGAGGUGGAGGUUUAUCGAACUUUCGGCGGAUGCCUCCAAA [A12U A39U U54C] | 0.0258 ± 0.016 s⁻¹ |
| AUAAAAGCGCCGGAACUACAGAAAUGUAGUAGACGAGGAGGAGGUUUAUCGAAUUUUCGGCGGAUGCCUCAAAA [A12G U31A C71A] | 2.64e-05 ± 1.6e-05 s⁻¹ |
| AUAAAAGCGCCAAAACUACAGAAAUGUAGUUGACGAGGAGGAGGUUUAUCAAAUUUUCGGCGGAUGCCUACAAA [G13A G51A C70A] | 3.39e-05 ± 2.4e-05 s⁻¹ |
| AUAAAAGCGCCAAAACUACAGAAAUGUAUUUGACGAGGAGGAGGUUUAUCGAAUUUUUGGCGGAUGCCUCCAAA [G13A G29U C58U] | 5.14e-05 ± 3.9e-05 s⁻¹ |
| AUAAAAGCGCCUUAACUACAGAAAUGUAGUUUACGAGGAGGAGGUUUAUCGAAUUUUCGGCGGGUGCCUCCAAA [A12U G13U G32U A64G] | 5.65e-05 ± 2.9e-05 s⁻¹ |
| AUAAAAGCGCCGGAAGUACAGAAAUGUAGUUGACGAGGAGGAGGUUUAUGGAAUUUUCGGCGGAUGCGUCCAAA [A12G C16G C50G C68G] | 6.14e-05 ± 3.2e-05 s⁻¹ |
| AUAAAAGCGCCUGAAUUACAGAAAUGUAGUUGACGAGGAGGAGGUUUAUCGAAAUUUCGGCGGAUGCCUCCAAA [A12U C16U U54A] | 0.0246 ± 0.013 s⁻¹ |
| AUAAAAGCGCCUGAACUACAGAAAUGUAGUUGACGAGGAGGAGUUUUAUCGGAUUUUCGGCGGAUGCCUCCAAA [A12U G44U A52G] | 2.7e-05 ± 1.4e-05 s⁻¹ |
| AUAAAAGCGCCACGACUACAGAAAUGUAGUUGACGAGGAGGAGGUUUAUCGAAUUUUCGGCGGAUGGCUCCAAA [G13C A14G C67G] | 2.4e-05 ± 2.4e-05 s⁻¹ |
| AUAAAAGCGCCACAACUACAGAAAUGUACUUGACGAGGAGGAGGUUUAUCGAAUUUUCGGCUGAUGCCUCCAAA [G13C G29C G62U] | 3.97e-05 ± 3.5e-05 s⁻¹ |
| AUAAAAGCGCCUGAACUACAGAAAUGUAGUUAACGAGGAGGAGGUUUAUCGAAUUUUCGGCGGAUGCCUCGAAA [A12U G32A C71G] | 3.46e-05 ± 2.5e-05 s⁻¹ |
| AUAAAAGCGCCACAACUACAGAAAUGUAGUUGACGAGGAGGAGGUUUAUCGUAUUUUCAGCGGAUGCGUCCAAA [G13C A52U G59A C68G] | 3.42e-05 ± 2.4e-05 s⁻¹ |
| AUAAAAGCGCCUGUACUACAGAAAUGUAGUUUACGAGGAGGAGGUUUAUCGAAUUUUCGGCGGAUGCCUCCAAA [A12U A14U G32U] | 2.93e-05 ± 2.6e-05 s⁻¹ |
| AUAAAAGCGCCACAACUACAGAAAUGUAGUUGACGAGGAGGAGGUUUAUCGAAUAUUCGGCGGAUGCCACCAAA [G13C U55A U69A] | 3.36e-05 ± 3.1e-05 s⁻¹ |
| AUAAAAGCGCCUGAACUACAGAAAUGUAGAUCACGAGGAGGAGGUUUAUCGAAUUUUGGGCGGAUGCCUCCAAA [A12U U30A G32C C58G] | 4.29e-05 ± 2.4e-05 s⁻¹ |
| AUAAAAGCGCCUGAACUACAGAAAUGUAGUUGACGAGGAGGAGGUUUAUCGAAUUAUCGGCGGCUGUCUCCAAA [A12U U56A A64C C67U] | 1.81e-05 ± 1.6e-05 s⁻¹ |
| AUAAAAGCGCCAAAAAUACAGAAAUGUAGUUGACGAGGAGGAGGUUUAUCGAAUUUUCGGCGGAUGCGUCCAAA [G13A C16A C68G] | 0.000767 ± 0.0004 s⁻¹ |
| AUAAAAGCGCCACAACUACAGAAAUGUAGGUGACGAGGAGGAGGUUUAUCGAAUUUUCGGCGGAUGCCUCCAAA [G13C U30G] | 2.34e-05 ± 1.7e-05 s⁻¹ |

| Variant | self-cleavage kobs at 2500 uM GlcN6P |
| --- | --- |
| AUAAAAGCGCCACAACUACAGAAAUGUAGUUGACGAGGAGGAGGUUUAUCGACUUUUCGGCGGAUGCCUCCAAA [G13C A53C] | 2.21e-05 ± 1.8e-05 s⁻¹ |
| AUAAAAGCGCCUGAACUACAGAAAUGUAUUUGACGAGGAGGAGGUUUAUCGAAUUUUCGGCGGAUGCCUCCAAA [A12U G29U] | 0.0189 ± 0.013 s⁻¹ |
| AUAAAAGCGCCACAAAUACAGAAAUGUAGUUGACGAGGGGGAGGUUUAUCGAAUUUUCGGCGGAUGCCUCCAAA [G13C C16A A39G] | 3.56e-05 ± 1.8e-05 s⁻¹ |
| AUAAAAGCGCCGGAACUACAGAAAUGUAGUUCACGAGGAGGAGGUUGAUCGAAUUGUCGGCGGAUGCCUCCAAA [A12G G32C U47G U56G] | 2.4e-05 ± 1.9e-05 s⁻¹ |
| AUAAAAGCGCCAAAACUACAGAAAUGUAGUUGACGAGGAUGAGGAUUAUCGAAUUUUCGGCGGAUGCCUCCAAA [G13A G40U U45A] | 1.74e-05 ± 1.5e-05 s⁻¹ |
| AUAAAAGCGCCACAACUACAGAAAUGUAGUUGACGAGGAGGAGGUUUAUCGAAUUUUCCGCGGAUGCCACCAAA [G13C G59C U69A] | 4.29e-05 ± 3.5e-05 s⁻¹ |
| AUAAAAGCGCCAAAACUACAGAAAUGUAGUUGACGAGGAGGAGGUUUAACGAAUUUUCGGCGGAUGCCACCAAA [G13A U49A U69A] | 2.45e-05 ± 1.8e-05 s⁻¹ |
| AUAAAAGCGCCUGGAGUACAGAAAUGUAGUUGACGAGGAGGAGGUUUAUCGAAUUUUCGGCGGAUGCCUCCAAA [A12U A14G C16G] | 0.000356 ± 0.00025 s⁻¹ |
| AUAAAAGCGCCGGAAUUACAGAAAUGUAGUUAACGAGGAGGAGGUUUAUCGAAUUUUCGGCGGAUGCCUCCAAA [A12G C16U G32A] | 1.98e-05 ± 1.4e-05 s⁻¹ |
| AUAAAAGCGCCGCAACUACAGAAAUGUAGUUGACGAGGAGGAGGUUUAUCGAACUUUCGGCGGAUGCCUCCAAA [A12G G13C U54C] | 2.53e-05 ± 2.5e-05 s⁻¹ |
| AUAAAAGCGCCACAACUACAGAAAUGUAGUUGACGAGGAGGAGGUUUAUCGAAUUUUUGGCGGAUGCCUCUAAA [G13C C58U C71U] | 3.09e-05 ± 2.5e-05 s⁻¹ |
| AUAAAAGCGCCUGAACUACAGAAAUGUAGUUGACGAGGAGGGGGUUUGUCGAAUUUUCGGCGGAUGCUUCCAAA [A12U A42G A48G C68U] | 3.42e-05 ± 2.9e-05 s⁻¹ |
| AUAAAAGCGCCGGAAAUACAGAAAUGUAGUUGACGAGGAGGAGGUUUAUCGAAUUUUCGGCGGAUGCCUCCAAA [A12G C16A] | 2.62e-05 ± 1.8e-05 s⁻¹ |
| AUAAAAGCGCCGGAACUACAGAAAUGUAGUCGACGAGGAGGAGGUUUAUAGAAUUUUCGACGGAUGCAUCCAAA [A12G U31C C50A G60A C68A] | 2.84e-05 ± 1.6e-05 s⁻¹ |
| AUAAAAGCGCCACAACUACAGAAAUGUAGUUGACGAGGAGGAGGUUUAUCAAAUUUUCGGCGGAUGCCGCCAAA [G13C G51A U69G] | 0.0027 ± 0.0021 s⁻¹ |
| AUAAAAGCGCCACAACUACAGAAAUGUAGUUGACGAGGAGGAGGUUUAUCGAAUUUUCGGCGGAUGCCUGCAAA [G13C C70G] | 2.83e-05 ± 1.5e-05 s⁻¹ |
| AUAAAAGCGCCGGAACUACAGAAAUGUAGUUGACGAAGAGGAGGUUUAUCGAAUUUUCGGCGGAUGCCGCCAAA [A12G G37A U69G] | 2.39e-05 ± 2.3e-05 s⁻¹ |

Copied from above (2 entries):

| Variant | self-cleavage kobs at 2500 uM GlcN6P |
| --- | --- |
| AUAAAAGCGCCAAAACUACAGAAAUGUAGUUGACGAGGAUGAGGAUUAUCGAAUUUUCGGCGGAUGCCUCCAAA [G13A G40U U45A] | 1.74e-05 ± 1.5e-05 s⁻¹ |
| AUAAAAGCGCCACAACUACAGAAAUGUAGUUGACGAGGAGGAGGUUUAUCGAAUUUUCCGCGGAUGCCACCAAA [G13C G59C U69A] | 4.29e-05 ± 3.5e-05 s⁻¹ |

Variants of: B1
Assay: self-cleavage kobs at 10000 uM GlcN6P; higher = faster cleavage; RNA array
Conditions: with glucosamine-6-phosphate
Outline: as §1

| Variant | self-cleavage kobs at 10000 uM GlcN6P |
| --- | --- |
| AUAAAAGCGCCUGGAGUACAGAAAUGUAGUUGACGAGGAGGAGGUUUAUCGAAUUUUCGGCGGAUGCCUCCAAA [A12U A14G C16G] | 0.107 ± 0.098 s⁻¹ |
| AUAAAAGCGCCACAACUACAGAAAUGUAGUUGACGAGGAGGAGGUUUAUCGAAUUUUUGGCGGAUGCCUCUAAA [G13C C58U C71U] | 1.68e-05 ± 1.3e-05 s⁻¹ |
